Results on two sequences are retold here after paper PMC12221994.

Amino acid sequences for entries named in this document (tags omitted). A change or cut given only in a name is not applied to a line headed by its entry.
UniProt Q15554: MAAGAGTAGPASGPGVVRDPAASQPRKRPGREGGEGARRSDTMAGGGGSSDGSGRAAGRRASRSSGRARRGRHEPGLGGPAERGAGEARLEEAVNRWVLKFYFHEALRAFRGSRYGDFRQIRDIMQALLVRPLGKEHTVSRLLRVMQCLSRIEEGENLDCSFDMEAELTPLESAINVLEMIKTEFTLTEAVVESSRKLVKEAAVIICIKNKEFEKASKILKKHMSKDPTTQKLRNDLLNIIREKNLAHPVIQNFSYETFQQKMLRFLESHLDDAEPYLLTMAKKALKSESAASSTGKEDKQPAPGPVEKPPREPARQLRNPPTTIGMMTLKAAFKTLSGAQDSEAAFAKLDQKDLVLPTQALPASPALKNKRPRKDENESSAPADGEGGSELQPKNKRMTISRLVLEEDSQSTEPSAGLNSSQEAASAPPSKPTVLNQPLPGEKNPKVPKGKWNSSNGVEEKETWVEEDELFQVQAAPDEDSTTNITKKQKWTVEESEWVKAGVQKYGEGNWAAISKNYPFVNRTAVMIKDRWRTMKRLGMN

Where two headings read alike, the source gives them in different places. For at least one entry, the source does not settle the construct or the ends of the probe. For part of these data: No signal at the amounts used counts as a negative. For part of these data: At least one verdict was read from the data and is not stated in words by the source.

In series [1] the test system is KU70/80 + DNA-PKcs + TRF2 + RAP1. The experiment in a line: DNase I footprinting. Particulars: Footprinting: 25 mM HEPES pH 7.6, 80 mM KCl, 1.5 mM CaCl2, 1.5 mM MgCl2, 5% glycerol, 50 ug/ml BSA, 2 mM DTT, ice then 37 C (EMSA same buffer, 37 C), recombinant protein, protein details: FLAG (KU70 N-terminal),dual strep,dual strep. In general terms: In EMSA bound probe runs differently from free probe, usually more slowly.

In a further series the target is TRF2 (human) (UniProt Q15554). The experiment in a line: EMSA. The conditions noted are these: 2, 15 or 40 nM TRF2, 1 nM DNA; cryo-EM: 40 mM HEPES pH 7.6, 100 mM NaCl, 3 mM MgCl2, 4 C; recombinant protein; protein details: dual strep; label: 32P 5' end (telomeric end).
The subject of series [2] is KU70/80 + DNA-PKcs + TRF2 + RAP1(deltaBRCT). The experiment in a line: DNase I footprinting. Particulars: read-out: 10-bp footprint; Footprinting: 25 mM HEPES pH 7.6, 80 mM KCl, 1.5 mM CaCl2, 1.5 mM MgCl2, 5% glycerol, 50 ug/ml BSA, 2 mM DTT, ice then 37 C (EMSA same buffer, 37 C); recombinant protein; protein details: FLAG (KU70 N-terminal),dual strep,dual strep; label: 32P 5' end (telomeric end).

Series [3] concerns KU70/80 + DNA-PKcs + RAP1 + TRF2(deltaMyb). The experiment in a line: DNase I footprinting. The conditions noted are these: read-out: 10-bp footprint, TRF2 Myb required; Footprinting: 25 mM HEPES pH 7.6, 80 mM KCl, 1.5 mM CaCl2, 1.5 mM MgCl2, 5% glycerol, 50 ug/ml BSA, 2 mM DTT, ice then 37 C (EMSA same buffer, 37 C); recombinant protein; protein details: FLAG (KU70 N-terminal),dual strep,dual strep; label: 32P 5' end (telomeric end).

In series [4] the test system is KU70/80 + DNA-PKcs + TRF2. The experiment in a line: DNase I footprinting. The conditions noted are these: read-out: 10-bp footprint absent without RAP1 (DNA-PK still bound); Footprinting: 25 mM HEPES pH 7.6, 80 mM KCl, 1.5 mM CaCl2, 1.5 mM MgCl2, 5% glycerol, 50 ug/ml BSA, 2 mM DTT, ice then 37 C (EMSA same buffer, 37 C); recombinant protein; protein details: FLAG (KU70 N-terminal),dual strep; label: 32P 5' end (telomeric end).

A further series deals with KU70/80 + DNA-PKcs. The experiment in a line: DNase I footprinting. The conditions noted are these: 32 bp protected from the end, 50 nM KU, 30 nM DNA-PKcs, 2 nM DNA; Footprinting: 25 mM HEPES pH 7.6, 80 mM KCl, 1.5 mM CaCl2, 1.5 mM MgCl2, 5% glycerol, 50 ug/ml BSA, 2 mM DTT, ice then 37 C (EMSA same buffer, 37 C); recombinant protein; protein details: FLAG (KU70 N-terminal); label: 32P 5' end (telomeric end).

The subject of series [5] is KU70/80 + DNA-PKcs + RAP1(deltaRCT) + TRF2. The experiment in a line: DNase I footprinting. The conditions noted are these: read-out: 10-bp footprint, RCT required; Footprinting: 25 mM HEPES pH 7.6, 80 mM KCl, 1.5 mM CaCl2, 1.5 mM MgCl2, 5% glycerol, 50 ug/ml BSA, 2 mM DTT, ice then 37 C (EMSA same buffer, 37 C); recombinant protein; protein details: FLAG (KU70 N-terminal),dual strep,dual strep; label: 32P 5' end (telomeric end).

Series [6] concerns KU70/80 + DNA-PKcs + TRF2 + RAP1(R133E). The experiment in a line: DNase I footprinting. Particulars: read-out: 10-bp footprint blocked; Footprinting: 25 mM HEPES pH 7.6, 80 mM KCl, 1.5 mM CaCl2, 1.5 mM MgCl2, 5% glycerol, 50 ug/ml BSA, 2 mM DTT, ice then 37 C (EMSA same buffer, 37 C); recombinant protein; protein details: FLAG (KU70 N-terminal),dual strep,dual strep; label: 32P 5' end (telomeric end).

The subject of series [7] is KU70/80 + DNA-PKcs + shelterin (TRF1, TRF2, RAP1, TIN2, POT1, TPP1). The experiment in a line: DNase I footprinting. Particulars: 10-bp footprint next to DNA-PK; Footprinting: 25 mM HEPES pH 7.6, 80 mM KCl, 1.5 mM CaCl2, 1.5 mM MgCl2, 5% glycerol, 50 ug/ml BSA, 2 mM DTT, ice then 37 C (EMSA same buffer, 37 C); recombinant protein; protein details: FLAG (KU70 N-terminal); label: 32P 5' end (telomeric end).

The subject of series [8] is KU70/80 + DNA-PKcs + RAP1 + TRF2 RBM mutant (L330R). The experiment in a line: DNase I footprinting. The conditions noted are these: read-out: 10-bp footprint, RBM required; Footprinting: 25 mM HEPES pH 7.6, 80 mM KCl, 1.5 mM CaCl2, 1.5 mM MgCl2, 5% glycerol, 50 ug/ml BSA, 2 mM DTT, ice then 37 C (EMSA same buffer, 37 C); recombinant protein; protein details: FLAG (KU70 N-terminal),dual strep,dual strep; label: 32P 5' end (telomeric end).

Series [9] has as its system KU70/80 + DNA-PKcs + RAP1 + TRF2(deltaMdeltaB). The experiment in a line: DNase I footprinting. The conditions noted are these: read-out: 10-bp footprint; Footprinting: 25 mM HEPES pH 7.6, 80 mM KCl, 1.5 mM CaCl2, 1.5 mM MgCl2, 5% glycerol, 50 ug/ml BSA, 2 mM DTT, ice then 37 C (EMSA same buffer, 37 C); recombinant protein; protein details: FLAG (KU70 N-terminal),dual strep,dual strep; label: 32P 5' end (telomeric end).

For series [10], the system named is KU70/80 + DNA-PKcs + Teb1 DBD. The experiment in a line: DNase I footprinting. Particulars: read-out: 10-bp footprint, Teb1 alone gives none; Footprinting: 25 mM HEPES pH 7.6, 80 mM KCl, 1.5 mM CaCl2, 1.5 mM MgCl2, 5% glycerol, 50 ug/ml BSA, 2 mM DTT, ice then 37 C (EMSA same buffer, 37 C); recombinant protein; protein details: FLAG (KU70 N-terminal); label: 32P 5' end (telomeric end).

Series [11] deals with KU70/80 + DNA-PKcs + RAP1 + TRF2(deltaBasic). The experiment in a line: DNase I footprinting. Particulars: read-out: 10-bp footprint, basic domain not required; Footprinting: 25 mM HEPES pH 7.6, 80 mM KCl, 1.5 mM CaCl2, 1.5 mM MgCl2, 5% glycerol, 50 ug/ml BSA, 2 mM DTT, ice then 37 C (EMSA same buffer, 37 C); recombinant protein; protein details: FLAG (KU70 N-terminal),dual strep,dual strep; label: 32P 5' end (telomeric end).

The test system of series [12] is KU70/80 + DNA-PKcs + RAP1. The experiment in a line: DNase I footprinting. Particulars: read-out: 10-bp footprint absent without TRF2; Footprinting: 25 mM HEPES pH 7.6, 80 mM KCl, 1.5 mM CaCl2, 1.5 mM MgCl2, 5% glycerol, 50 ug/ml BSA, 2 mM DTT, ice then 37 C (EMSA same buffer, 37 C); recombinant protein; protein details: FLAG (KU70 N-terminal),dual strep; label: 32P 5' end (telomeric end).

Take “CGGTACCCGGGGATCCTCTAGAGTCGACGAAGACCACCAGCTAGTACAACCACATACTTTATGGAGAAATTTCAAAACGCAAAGAAGAACGAAGATAAACAAATTGCCAAGTTTGAAAGCATGATGAATGCAAGAGTACATACGTTCAGTACCGATGAGAAGAAATATGTGCCGATAATCACAAACGAATTAGAAAGCTTTTCAAATCTTTGGGTTAAAAAGAGGTACATACCTGAAGATGACTTAAAACGGGCTTTGCATGAGATCAAAATCCTTCGGTTGGGCAAACTTTTTGCTAAAATTCGCCCACCTAAATTTCAAGAGCCTGAATACGCCAACTGGGCCACCGTAGGCCTCATTAGCCACAAATCGGACATCAAATTTAC (double strand) [PE2 non-telomeric template]”: the binding result in [1] (read-out: 10-bp footprint absent on non-telomeric DNA, label: 32P 5' end) is on record as “no binding”.

“CGGTACCCGGGGATCCTCTAGAGTCGACGAAGACTTAGGGTTAGGGTTAGGGTTAGGGTTAGGGTTAGGGTTAGGGTTAGGGTTAGGGTTAGGGTTAGGGTTAGGGTTAGGGTTAGGGTTAGGGTTAGGGTTAGGGTTAGGGTTAGGGTTAGGGTTAGGGTTAGGGTTAGGGTTAGGGTTAGGGTTAGGGTTAGGGTTAGGGTTAGGGTTAGGGTTAGGGTTAGGGTTAGGGTTAGGGTTAGGGTTAGGGTTAGGGTTAGGGTTAGGGTTAGGGTTAGGGTTAGGGTTAGGGTTAGGGTTAGGGTTAGGGTTAGGGTTAGGGTTAGGGTTAGGGTTAGGGTTAGGGTTAGGGTTAGGGTTAGGGTTAGGGTTAGGGTTAGGGTTAGGG (double strand) [PE1 telomeric template]”: the binding result with TRF2 (human) is on record as “binds”; in series [2], “no binding”; in series [3], “no binding”; in series [4], “no binding”; in the series with KU70/80 + DNA-PKcs, “binds”; in series [5], “no binding”. For the same sequence, the binding result in [6] is reported as “no binding”; in series [1] (10-bp footprint next to DNA-PK, 5 nM TRF2-RAP1, also at 250 nM each, label: 32P 5' end (telomeric end)), “binds”; in series [7] it was “binds”; in series [8], “no binding”; in [9], “no binding”; in series [10], “no binding”. In addition, the binding result in series [11] is recorded as “binds”; in [12] it was “no binding”.
